Literature values, collected in patent US11325978B2, “Compositions and methods for treating beta-globinopathies” (priority 2018, dated 2022).

Tested on: RIOK3
Conditions: collection of 72 inhibitors against 456 human kinases (Davis et al. 2011)

Row | Compound | inhibition of RIOK3 kinase activity
1 | CO[C@@H]1[C@H](N(C)C(=O)c2ccccc2)C[C@H]2O[C@]1(C)n1c3ccccc3c3c4c(c5c6ccccc6n2c5c31)C(=O)NC4 [midostaurin, Midostaurin] | inhibit RIOK3 kinase activity
2 | CNC(=O)c1ccccc1Sc1ccc2c(/C=C/c3ccccn3)n[nH]c2c1 [axitinib, Axitinib] | inhibit RIOK3 kinase activity
